From PMC4977272
Results are given in words; binding and its absence hold for the method and conditions named. Binding seen in cells or lysates may run through a third protein. Some entries that bind do so weakly or less than the wild type.

Sequences of proteins named here, by UniProt entry; tags and fusion partners are left off.
UniProt Q9D0L8: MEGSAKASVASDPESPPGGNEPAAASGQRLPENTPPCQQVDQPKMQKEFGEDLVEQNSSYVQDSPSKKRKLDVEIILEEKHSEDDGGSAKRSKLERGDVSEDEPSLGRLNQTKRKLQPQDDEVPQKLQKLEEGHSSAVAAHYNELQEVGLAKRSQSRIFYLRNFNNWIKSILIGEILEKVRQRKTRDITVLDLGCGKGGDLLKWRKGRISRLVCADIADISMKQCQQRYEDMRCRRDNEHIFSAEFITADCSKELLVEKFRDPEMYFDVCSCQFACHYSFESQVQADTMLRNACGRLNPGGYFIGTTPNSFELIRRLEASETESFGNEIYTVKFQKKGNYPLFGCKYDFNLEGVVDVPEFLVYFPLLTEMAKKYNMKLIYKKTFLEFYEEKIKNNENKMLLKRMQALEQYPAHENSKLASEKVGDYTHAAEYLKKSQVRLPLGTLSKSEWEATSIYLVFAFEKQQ
UniProt Q9CQY2: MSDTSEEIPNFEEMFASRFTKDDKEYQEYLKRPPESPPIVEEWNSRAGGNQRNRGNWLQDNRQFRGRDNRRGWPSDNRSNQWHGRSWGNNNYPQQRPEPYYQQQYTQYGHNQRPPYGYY

How the values were obtained:
[1] = target: RNMT (RNA guanine-7 methyltransferase) (mouse (endogenous in ESCs)) (UniProt Q9D0L8); test: co-IP; reciprocal immunoprecipitations of endogenous RNMT and RAM from ESC extracts, western blot (Figure S2C)
[2] = target: RAM (RNMT-activating miniprotein) (mouse (endogenous in ESCs)) (UniProt Q9CQY2); test: as above

Row | binding [1] | binding [2] | Substance
1 | binds | – | RAM (RNMT-activating miniprotein) (from UniProt Q9CQY2 1-119)
2 | – | binds | RNMT (RNA guanine-7 methyltransferase) (from UniProt Q9D0L8 1-465) (enzyme)
